According to patent US7285282B2, “Mucin peptide with immunoenhancing properties” (University of Miami, priority 2001, dated 2007):
Not every detail of the peptide structures is certain; ends, links or a residue may be inferred. Where no end group is shown, it is not given here.

Legend:
D1-DMBA-3 tumor = assay: Peptide vaccination against D1-DMBA-3 mammary tumor; assay type: in vivo, BALB/c mice; settings: vaccination protocols similar to those above, FIG. 17
EL-4 target cells = assay: NK cell assay, splenocytes pretreated with IEP, EL-4 targets; assay type: cell-based, BALB/c mice; settings: 10 μg IEP, 30-45 minutes pretreatment, 4-hour assay, FIG. 18
DA-3/sec tumor targets = assay: Splenocyte cytotoxicity against DA-3/sec targets after in vitro MUC1/sec peptide; assay type: cell-based, mice; settings: normal BALB/c or C57 BL/6 splenic cells, previous exposure to peptide, FIG. 19

Sequence: VSIGLSFPMLP [IEP]
- Protection against growth of D1-DMBA-3 tumor (D1-DMBA-3 tumor): significant protection
- Lysis of EL-4 target cells by normal splenocytes (EL-4 target cells): readily lysable
- Activation of normal splenic effector cells against DA-3/sec targets (DA-3/sec tumor targets): kill DA-3/sec target cells
